Data as given in PubChem BioAssay AID652243 (Drosophila RNAi Screening Center, 2013).

- Aim: 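Knock-downs that decrease or increase androgen receptor reporter signal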 (primary screen)
- Cell system: Drosophila S2R+ cells
- Reagent: long dsRNA against Drosophila genes
- Timing: 72 h (48 h, then 24 h hormone)
- Conditions: synthetic androgen R1881 at 10 nM for 24 h
- Detection: 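Firefly light from an androgen-responsive reporter and Renilla control light per well, raw and unnormalised, for each of two replicates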
- Reading the numbers: firefly reporter light: higher = more light from androgen-responsive reporter; Renilla control light: higher = more constitutive control signal (cell number, transfection)
- Active means: 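Hit when the log firefly-to-Renilla ratio dropped or increased by a fixed fold versus the mean of GFP or LacZ controls across duplicate plates; lowering cut given as 1.5 and as 3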
- Calls: active = hit: reporter lowered or raised; inactive = no hit
The screen tested about 24,000 reagents; below is a random part of those that have a named target and a result. Of all reagents, 246 (1%) are marked active. 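Plates not normalised; calls are printed but the firefly/Renilla ratio behind them is not deposited; fold cut for lowering reported inconsistently.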 Raw values vary from plate to plate and are shown uncorrected. Names joined by + are all predicted targets of the reagent. No sequences are given here. Not stated in the record: the amount of reagent.

| firefly reporter light, replicate 1 | firefly reporter light, replicate 2 | Renilla control light, replicate 1 | Renilla control light, replicate 2 | outcome | gene | dsRNA |
| --- | --- | --- | --- | --- | --- | --- |
| 7.39e5 | 5.68e5 | 8.80e5 | 8.25e5 | inactive | angel (GeneID 37748) | DRSC04670 |
| 8.51e5 | 9.10e5 | 1.51e6 | 1.11e6 | inactive | angel (GeneID 37748) | DRSC21326 |
| 7.93e5 | 8.60e5 | 2.39e6 | 1.98e6 | inactive | CG3165 (GeneID 33503) | DRSC00573 |
| 1.45e6 | 5.18e5 | 1.62e6 | 1.14e6 | inactive | CG6931 (GeneID 39363) | DRSC10750 |
| 66587 | 1.14e5 | 8.26e5 | 1.38e6 | inactive | CG9416 (GeneID 37223) | DRSC07339 |
| 1.25e5 | 1.22e5 | 8.51e5 | 7.58e5 | inactive | CG2247 (GeneID 32111) | DRSC19844 |
| 37257 | 76823 | 1.20e6 | 1.49e6 | inactive | Osi4 (GeneID 40758) | DRSC12134 |
| 2.61e5 | 1.57e5 | 1.74e6 | 1.56e6 | inactive | CG13996 (GeneID 33842) | DRSC02328 |
| 2.20e5 | 2.39e5 | 1.84e6 | 1.63e6 | inactive | INPP5E (GeneID 39404) | DRSC09723 |
| – | – | – | – | inactive | INPP5E (GeneID 39404) | DRSC36899 |
| – | – | – | – | inactive | INPP5E (GeneID 39404) | DRSC36900 |
| 1.70e5 | 1.81e5 | 3.09e5 | 3.44e5 | inactive | nAChRalpha6 (GeneID 34304) | DRSC01096 |
| 8.92e5 | 8.28e5 | 1.59e6 | 1.99e6 | inactive | nAChRalpha6 (GeneID 34304) | DRSC02738 |
| 35421 | 36054 | 4.48e5 | 2.53e5 | inactive | roq (GeneID 39818) | DRSC10227 |
| 6.47e5 | 7.78e5 | 1.03e6 | 1.06e6 | inactive | Or65c (GeneID 318013) | DRSC21312 |
| 3.90e5 | 3.50e5 | 2.52e6 | 1.85e6 | inactive | ArgRS (GeneID 32539) | DRSC20138 |
| 1.46e6 | 5.17e5 | 2.78e6 | 9.26e5 | inactive | ssp7 (GeneID 318146) | DRSC18878 |
| 1.26e5 | 1.26e5 | 5.98e5 | 7.66e5 | inactive | Rab35 (GeneID 33014) | DRSC20691 |
| 8.39e5 | 4.78e5 | 7.35e5 | 2.85e5 | inactive | Rab35 (GeneID 33014) | DRSC26739 |
| 4.03e5 | 6.18e5 | 2.34e6 | 3.07e6 | inactive | cyr (GeneID 31733) | DRSC18017 |
| 2.29e5 | 3.53e5 | 2.28e6 | 3.22e6 | inactive | cyr (GeneID 31733) | DRSC18018 |
| 2.38e5 | 1.09e5 | 5.71e5 | 4.98e5 | inactive | CG32486 (GeneID 38367) | DRSC08413 |
| 1.75e5 | 2.22e5 | 1.93e6 | 2.71e6 | inactive | CG32486 (GeneID 38367) | DRSC08488 |
| 1.12e5 | 97563 | 1.88e6 | 1.02e6 | inactive | CG13311 (GeneID 39008) | DRSC09982 |
| 84857 | 91813 | 1.62e6 | 1.77e6 | inactive | ich (GeneID 41069) | DRSC14448 |
| 3.48e5 | 4.99e5 | 1.26e6 | 1.26e6 | inactive | ich (GeneID 41069) | DRSC29647 |
| 7.08e5 | 7.82e5 | 1.47e6 | 1.43e6 | inactive | CG3702 (GeneID 33628) | DRSC00628 |
| 1.11e5 | 1.58e5 | 7.19e5 | 1.74e6 | inactive | CG12605 (GeneID 38468) | DRSC08286 |
| 8.54e5 | 6.59e5 | 1.63e6 | 1.76e6 | inactive | CG12605 (GeneID 38468) | DRSC28756 |
| 1.10e6 | 7.96e5 | 2.18e6 | 2.13e6 | inactive | CG12605 (GeneID 38468) | DRSC39045 |
| 2.13e5 | 2.36e5 | 2.98e6 | 2.97e6 | inactive | Adk1 (GeneID 41476) | DRSC15514 |
| – | – | – | – | inactive | Adk1 (GeneID 41476) | DRSC36923 |
| 2.63e5 | 2.93e5 | 5.66e5 | 5.00e5 | inactive | CG30440 (GeneID 35496) | DRSC04775 |
| 4.29e5 | 4.02e5 | 3.14e6 | 2.41e6 | inactive | CG30440 (GeneID 35496) | DRSC04845 |
| 2.65e5 | 2.38e5 | 1.69e6 | 1.22e6 | inactive | CG30440 (GeneID 35496) | DRSC04855 |
| 1.03e5 | 1.23e5 | 5.79e5 | 6.92e5 | inactive | CG8461 (GeneID 41758) | DRSC16424 |
| 48679 | 63038 | 2.99e5 | 2.19e5 | inactive | Arp5 (GeneID 42173) | DRSC16350 |
| 4.62e5 | 4.14e5 | 1.46e6 | 1.24e6 | inactive | Arp5 (GeneID 42173) | DRSC28688 |
| 1.81e5 | 1.98e5 | 1.54e6 | 1.57e6 | inactive | CG6431 (GeneID 34476) | DRSC02956 |
| 5.89e5 | 7.64e5 | 1.90e6 | 1.71e6 | inactive | CG3847 (GeneID 31577) | DRSC17444 |
| 59619 | 45556 | 6.41e5 | 3.88e5 | inactive | CG3847 (GeneID 31577) | DRSC18327 |
| 5.05e5 | 5.14e5 | 5.65e5 | 4.96e5 | inactive | CG3847 (GeneID 31577) | DRSC26193 |
| 1.81e5 | 2.04e5 | 1.38e6 | 1.38e6 | inactive | spz3 (GeneID 34077) | DRSC02391 |
| 48285 | 75104 | 5.15e5 | 7.11e5 | inactive | spz3 (GeneID 34077) | DRSC03008 |
| 9.16e5 | 1.18e6 | 1.29e6 | 1.49e6 | inactive | CG33791 + CG12105 + CG18170 | DRSC08387 |
| 7.81e5 | 7.21e5 | 3.25e6 | 3.36e6 | inactive | CG12479 (GeneID 50344) | DRSC19459 |
| 1.54e5 | 1.46e5 | 1.94e6 | 1.95e6 | inactive | Taf1 (GeneID 40813) | DRSC12607 |
| 5.07e5 | 4.27e5 | 1.15e6 | 1.15e6 | inactive | Taf1 (GeneID 40813) | DRSC29806 |
| – | – | – | – | inactive | Taf1 (GeneID 40813) | DRSC36664 |
| – | – | – | – | inactive | Taf1 (GeneID 40813) | DRSC36665 |
| 51326 | 24319 | 8.48e5 | 5.39e5 | active | Rbp1 (GeneID 41294) | DRSC16817 |
| 1.12e6 | 1.05e6 | 1.99e6 | 1.84e6 | inactive | CG34241 (GeneID 5740575) | DRSC38845 |
| 8.90e5 | 1.04e6 | 2.71e6 | 2.39e6 | inactive | CG17646 (GeneID 33354) | DRSC00507 |
| 93306 | 55615 | 5.51e5 | 4.54e5 | inactive | CG13690 (GeneID 33213) | DRSC00359 |
| 3.41e5 | 3.34e5 | 2.22e6 | 1.55e6 | inactive | bonsai (GeneID 37587) | DRSC04453 |
| 6.64e5 | 6.09e5 | 8.98e5 | 7.72e5 | inactive | bonsai (GeneID 37587) | DRSC24153 |
| 2.50e5 | 1.05e5 | 2.62e6 | 1.48e6 | inactive | SAK (GeneID 40384) | DRSC11879 |
| 6.57e5 | 6.97e5 | 9.05e5 | 7.42e5 | inactive | SAK (GeneID 40384) | DRSC23329 |
| 4.64e5 | 4.36e5 | 9.29e5 | 9.29e5 | inactive | SAK (GeneID 40384) | DRSC29461 |

Entries listed so far whose target name starts with I or i:
| firefly reporter light, replicate 1 | firefly reporter light, replicate 2 | Renilla control light, replicate 1 | Renilla control light, replicate 2 | outcome | gene | dsRNA |
| --- | --- | --- | --- | --- | --- | --- |
| 2.20e5 | 2.39e5 | 1.84e6 | 1.63e6 | inactive | INPP5E (GeneID 39404) | DRSC09723 |
| – | – | – | – | inactive | INPP5E (GeneID 39404) | DRSC36899 |
| – | – | – | – | inactive | INPP5E (GeneID 39404) | DRSC36900 |
| 84857 | 91813 | 1.62e6 | 1.77e6 | inactive | ich (GeneID 41069) | DRSC14448 |
| 3.48e5 | 4.99e5 | 1.26e6 | 1.26e6 | inactive | ich (GeneID 41069) | DRSC29647 |
